Source: patent US20150239983A1 (University of California, published 2015)
These are yes or no findings as the source states them, for the method shown. Some binding calls cover weakened binding; strength is not graded here. For part of these data: Where a sequence is shown, tags or fusion partners need not be part of it.

T1: PSCA expressed at the cell surface (EBV transformed B-cell lymphoma cell line stably transfected with PSCA) (human) (UniProt O43653)
T1 sequence: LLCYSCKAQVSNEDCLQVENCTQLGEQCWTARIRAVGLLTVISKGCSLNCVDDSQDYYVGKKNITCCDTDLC

T2: purified PSCA-Fc (human, UniProt O43653 12-83, limits assumed)
T2 construct: not shown: Fc part
T2 sequence: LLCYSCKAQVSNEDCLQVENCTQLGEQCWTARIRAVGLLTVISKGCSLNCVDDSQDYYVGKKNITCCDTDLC


Assays:
[1] = molecular target: PSCA human Gamma 1 fusion protein (human) [IgG part: P01857]; test: flow cytometry of yeast-displayed scFv clones after the fourth round of sorting with PSCA human Gamma 1 fusion protein
[2] = molecular target: T1, PSCA expressed at the cell surface (EBV transformed B-cell lymphoma cell line stably transfected with PSCA) (human); test: flow cytometry on a B-cell lymphoma line stably transfected with PSCA, detected with anti-human Fc PE
purified PSCA-Fc [3] = molecular target: T2, purified PSCA-Fc; test: competition ELISA, wells coated with purified PSCA-Fc
purified PSCA-Fc [4] = molecular target: T2, purified PSCA-Fc; test: refers back to the affinity ranking of Example 4 (competition ELISA and flow cytometry)

binding [1] | binding [2] | Binder | other results
 | binds | A11 anti-PSCA minibody (other, also called A11 minibody; variant A11) DIQLTQSPSTLSASMGDRVTITCSASSSVRFIHWYQQKPGKAPKRLIYDTSKLASGVPSRFSGSGSGTDFTLTISSLQPEDFATYYCQQWGSSPFTFGQGTKVEIKGSTSGGGSGGGSGGGGSSEVQLVEYGGGLVQPGGSLRLSCAASGFNIKDYYIHWVRQAPGKGLEWVAWIDPENGDTEFVPKFQGRATMSADTSKNTAYLQMNSLRAEDTAVYYCKTGGFWGQGTLVTVSSEPKSCDKTHTCPPCGGGSSGGGSGGQPREPQVYTLPPSRDELTKNQVSLTCLVKGFYPSDIAVEWESNGQPENNYKTTPPVLDSDGSFFLYSKLTVDKSRWQQGNVFSCSVMHEALHNHYTQKSLSLSPGK | 
 | binds | C5 anti-PSCA minibody (other, also called C5 minibody; variant C5) DIQLIQSPSSLSASVGDRVTITCSASSSVRFIHWYQQKPGKAPKRLIYDTSKLASGVPSRFSGSGSGTDFTLTISSLQPEDFATYYCQQWSSSPFTFGQGTKVEIKGSTSGGGSGGGSGGGGSSEVQLVESGGGLVQPGGSLRLSCAASGFNIKDYYIHWVRQAPGKGLEWVAWIDPENGDTEFVPKFQGRATISADTSKNTVYLQMNSLRAKDTAVYYCKTGGFWGQGTLVTVSSEPKSCDKTHTCPPCGGGSSGGGSGGQPREPQVYTLPPSRDELTKNQVSLTCLVKGFYPSDIAVEWESNGQPENNYKTTPPVLDSDGSFFLYSKLTVDKSRWQQGNVFSCSVMHEALHNHYTQKSLSLSPGK | 
 | binds | parental 2B3 minibody (protein) DIQLTQSPSSLSASVGDRVTITCSASSSVRFIHWYQQKPGKAPKRLIYDTSKLASGVPSRFSGSGSGTDFTLTISSLQPEDFATYYCQQWSSSPFTFGQGTKVEIKGSTSGGGSGGGSGGGGSSEVQLVESGGGLVQPGGSLRLSCAASGFNIKDYYIHWVRQAPGKGLEWVAWIDPENGDTEFVPKFQGRATISADTSKNTAYLQMNSLRAEDTAVYYCKTGGFWGQGTLVTVSSEPKSCDKTHTCPPCGGGSSGGGSGGQPREPQVYTLPPSRDELTKNQVSLTCLVKGFYPSDIAVEWESNGQPENNYKTTPPVLDSDGSFFLYSKLTVDKSRWQQGNVFSCSVMHEALHNHYTQKSLSLSPGK | binding (purified PSCA-Fc [3]): binds
binds |  | A11 ScFv (2B3 ScFv variant) (scFv) scFv: DIQLTQSPSTLSASMGDRVTITCSASSSVRFIHWYQQKPGKAPKRLIYDTSKLASGVPSRFSGSGSGTDFTLTISSLQPEDFATYYCQQWGSSPFTFGQGTKVEIKGSTSGGGSGGGSGGGGSSEVQLVEYGGGLVQPGGSLRLSCAASGFNIKDYYIHWVRQAPGKGLEWVAWIDPENGDTEFVPKFQGRATMSADTSKNTAYLQMNSLRAEDTAVYYCKTGGFWGQGTLVTVSSAAG | 

The next lines start with the binder.

Binder | binding [1] | binding [2] | other results
A2 ScFv (2B3 ScFv variant) (scFv) scFv: DIQLTQSPSSLSASVGDRVTITCSASSSVRFIHWYQQKPGKAPKRLIYDTSKLASGVPSRFSGSGSGTDFTLTISSLQPEDFATYYCQQWGSSPFTFGQGTKVEIKGSTSGGGSGGGSGGGGSEVQLVESGGGLVQPGGSLRLSCAASGFNIKDYYIHWVRQAPGKGLEWVAWIDPEYGDSEFVPKFQGRATMSADTSKNTAYLQMNSLRAEDTAVYYCKTGGFWGRGTLVTVSSAAG | binds |  | 
A2 anti-PSCA minibody (other, also called A2 minibody; variant A2) DIQLTQSPSSLSASVGDRVTITCSASSSVRFIHWYQQKPGKAPKRLIYDTSKLASGVPSRFSGSGSGTDFTLTISSLQPEDFATYYCQQWGSSPFTFGQGTKVEIKGSTSGGGSGGGSGGGGSEVQLVESGGGLVQPGGSLRLSCAASGFNIKDYYIHWVRQAPGKGLEWVAWIDPEYGDSEFVPKFQGRATMSADTSKNTAYLQMNSLRAEDTAVYYCKTGGFWGRGTLVTVSSEPKSCDKTHTCPPCGGGSSGGGSGGQPREPQVYTLPPSRDELTKNQVSLTCLVKGFYPSDIAVEWESNGQPENNYKTTPPVLDSDGSFFLYSKLTVDKSRWQQGNVFSCSVMHEALHNHYTQKSLSLSPGK |  | binds | binding (purified PSCA-Fc [4]): binds
C5 ScFv (2B3 ScFv variant) (scFv) scFv: DIQLIQSPSSLSASVGDRVTITCSASSSVRFIHWYQQKPGKAPKRLIYDTSKLASGVPSRFSGSGSGTDFTLTISSLQPEDFATYYCQQWSSSPFTFGQGTKVEIKGSTSGGGSGGGSGGGGSSEVQLVESGGGLVQPGGSLRLSCAASGFNIKDYYIHWVRQAPGKGLEWVAWIDPENGDTEFVPKFQGRATISADTSKNTVYLQMNSLRAKDTAVYYCKTGGFWGQGTLVTVSSAAG | binds |  | 
